Test results taken from publication PMC7941204.
The exact form of at least one protein or probe is not confirmed. At least one verdict was read from the data and is not stated in words by the source.

Chains of the proteins cited; added tags and fusions are not shown. Chains listed by the source or under a name are the forms on record and can include a tag or linker.
RAD-51f (6-FAM-labelled RAD-51) (Caenorhabditis elegans), one chain, as listed by the source: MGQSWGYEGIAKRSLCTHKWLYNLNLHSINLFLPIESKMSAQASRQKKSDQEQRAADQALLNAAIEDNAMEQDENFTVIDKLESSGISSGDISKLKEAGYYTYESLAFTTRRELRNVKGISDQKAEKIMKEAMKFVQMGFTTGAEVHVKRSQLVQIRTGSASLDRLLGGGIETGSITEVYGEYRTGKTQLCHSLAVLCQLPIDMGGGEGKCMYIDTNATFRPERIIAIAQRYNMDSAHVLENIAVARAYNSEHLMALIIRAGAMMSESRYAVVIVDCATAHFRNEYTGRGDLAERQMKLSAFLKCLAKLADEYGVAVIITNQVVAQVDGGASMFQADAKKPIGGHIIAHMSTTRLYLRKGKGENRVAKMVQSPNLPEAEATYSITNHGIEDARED

How the values were obtained:
Assay in all cases: EMSA
[1] = system: RAD-51f (6-FAM-labelled RAD-51) (Caenorhabditis elegans); details: 2 mM ATP, 2 mM Mg2+, WT level of DNA binding, EMSA 49-mer: 35 mM Tris-HCl pH 7.5, 50 mM KCl, 1 mM DTT, 2 mM MgCl2, 2 mM ATP, 25 C, EMSA 60-mer: 20 mM Tris-HCl pH 7.5, 8% glycerol, 50 mM Na acetate, recombinant protein, protein details: 6-FAM (succinimidyl ester), SUMO fusion vector, label: 5'-Cy5 or 5'-FAM versions listed in Table S1, single-stranded DNA
[2] = system: RAD-51 (Caenorhabditis elegans); details: 2 mM ATP, 2 mM Mg2+, EMSA 49-mer: 35 mM Tris-HCl pH 7.5, 50 mM KCl, 1 mM DTT, 2 mM MgCl2, 2 mM ATP, 25 C, EMSA 60-mer: 20 mM Tris-HCl pH 7.5, 8% glycerol, 50 mM Na acetate, recombinant protein, protein details: SUMO fusion vector (pET-SUMO), label: 5'-Cy5 or 5'-FAM versions listed in Table S1, single-stranded DNA
[3] = system: RAD-51 + RFS-1 (of RFS-1/RIP-1) + RIP-1-3xFLAG-ybbr(A647); details: 2 mM ATP, binding of RFS-1/RIP-1(A647) to RAD-51 filament, EMSA 49-mer: 35 mM Tris-HCl pH 7.5, 50 mM KCl, 1 mM DTT, 2 mM MgCl2, 2 mM ATP, 25 C, EMSA 60-mer: 20 mM Tris-HCl pH 7.5, 8% glycerol, 50 mM Na acetate, recombinant protein, label: 5'-Cy5 or 5'-FAM versions listed in Table S1, single-stranded DNA

Measured: binding result

AGCTACCATGCCTGCACGAATTAAGCAATTCGTAATCATGGTCATAGCT [49-mer]
binds: all assays above
